Data: the supplement of paper PMC4604168 (melanoma cell lines)
The other results are listed elsewhere or left out. Many values rest on one well or one pass, so single values are uncertain.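 The apoptosis fraction was the count of cleaved-PARP antibody-stained nuclei relative to all DNA-stained nuclei, imaged in 1,536-well plates. Screening doses were set so most cells survived, and baseline and induced cleaved-PARP levels vary greatly across cell lines.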

How the values were obtained:
Assay in all cases: cleaved PARP positive nuclei fraction relative to DMSO control; melanoma cells; higher = more apoptosis
Details in all cases: library dose: low library concentration; 72 h
COLO792 = test system: COLO792
COLO800 = test system: COLO800
COLO829 = test system: COLO829
G361 = test system: G361
IPC-298 = test system: IPC-298
IST-MEL1 = test system: IST-MEL1
LB2518-MEL = test system: LB2518-MEL
LOXIMVI = test system: LOXIMVI
MZ2-MEL = test system: MZ2-MEL
MeWo = test system: MeWo
RPMI7951 = test system: RPMI7951
RVH-421 = test system: RVH-421
SkMel28 = test system: SkMel28
SkMel2 = test system: SkMel2
SkMel30 = test system: SkMel30
SkMel5 = test system: SkMel5
UACC257 = test system: UACC257
UACC62 = test system: UACC62

Compound	cleaved PARP positive nuclei fraction (COLO792) [%]	cleaved PARP positive nuclei fraction (COLO800) [%]	cleaved PARP positive nuclei fraction (COLO829) [%]	cleaved PARP positive nuclei fraction (G361) [%]	cleaved PARP positive nuclei fraction (IPC-298) [%]	cleaved PARP positive nuclei fraction (IST-MEL1) [%]	cleaved PARP positive nuclei fraction (LB2518-MEL) [%]	cleaved PARP positive nuclei fraction (LOXIMVI) [%]	cleaved PARP positive nuclei fraction (MZ2-MEL) [%]	cleaved PARP positive nuclei fraction (MeWo) [%]	cleaved PARP positive nuclei fraction (RPMI7951) [%]	cleaved PARP positive nuclei fraction (RVH-421) [%]	cleaved PARP positive nuclei fraction (SkMel28) [%]	cleaved PARP positive nuclei fraction (SkMel2) [%]	cleaved PARP positive nuclei fraction (SkMel30) [%]	cleaved PARP positive nuclei fraction (SkMel5) [%]	cleaved PARP positive nuclei fraction (UACC257) [%]	cleaved PARP positive nuclei fraction (UACC62) [%]
O=C(Nc1cc(C(F)(F)F)cc(C(F)(F)F)c1)c1cc(Cl)ccc1O + CCN(CC)CCCCNc1ncc2cc(-c3cc(OC)cc(OC)c3)c(NC(=O)NC(C)(C)C)nc2n1 [PD173074] (first compound 0.016 µM, partner dose 0.1 µM)	135	142	74.3	68.6	96.4	66.6	185	22.3	88.3	46.3	79.2	49.8	104	129	39.7	136	127	86.6
O=c1[nH]nc(Sc2ncc([N+](=O)[O-])s2)n1-c1ccc2c(c1)OCCO2 + CC(C)CCN1c2nc(Nc3cc(F)c(O)c(F)c3)ncc2N(C)C(=O)C1C [BID1870] (first compound 0.2 µM, partner dose 0.2 µM)	99.2	56	82.5	65.6	45.2	67.1	132	120	190	68.4	61.6	76.3	140	39.2	130	116	132	85.4
COc1cc([C@@H]2c3cc4c(cc3[C@@H](O[C@@H]3O[C@@H]5CO[C@@H](C)O[C@H]5[C@H](O)[C@H]3O)[C@H]3COC(=O)[C@H]23)OCO4)cc(OC)c1O [etoposide] + COc1ccc(COc2ccc(Cc3cnc(N)nc3N)cc2OC)cc1 [GW2580] (first compound 0.02 µM, partner dose 1 µM)	91.8	18.8	20.3	98.5	38.8	64.9	79.8	50.1	141	41.8	70.1	44	56.5	21.9	35	78	73.1	89.7
O=C(Nc1cc(C(F)(F)F)cc(C(F)(F)F)c1)c1cc(Cl)ccc1O + COc1ccc(COc2ccc(Cc3cnc(N)nc3N)cc2OC)cc1 [GW2580] (first compound 0.016 µM, partner dose 1 µM)	81.5	109	175	26.4	48.8	240	76.3	139	37.6	54.4	148	84.6	276	53.5	37.4	94.3	99.4	226
N#CC[C@H](C1CCCC1)n1cc(-c2ncnc3[nH]ccc23)cn1 [ruxolitinib] + CCc1ccc(CCOc2ccc(CC3SC(=O)NC3=O)cc2)nc1 [pioglitazone] (first compound 1 µM, partner dose 2 µM)	150	9.78	121	83.4	175	137	68.3	65.7	126	25.4	85.6	191	101	65.9	90.2	72.9	78.2	68.9
O=C(/C=C/c1cccnc1)NCCCCC1CCN(C(=O)c2ccccc2)CC1 + Oc1cc(-c2nc(-c3ccccc3)[nH]c2-c2ccncc2)ccc1Cl [L779450] (first compound 0.01 µM, partner dose 0.2 µM)	421	290	139	1220	318	184	376	42.1	503	175	210	87.4	196	470	39.1	151	60.7	95.7
CCCCCCCCCCCCCCCCCCOP(=O)([O-])OC1CC[N+](C)(C)CC1 [Perifosine] + Cc1cc([N+](=O)[O-])ccc1NS(=O)(=O)c1cc(Cl)ccc1Cl [FH535] (first compound 0.4 µM, partner dose 1 µM)	42.3	93.8	57.9	135	208	166	145	101	86.3	51.6	101	88.9	41.2	62.8	74.7	87.1	93	91
CC[C@]1(O)C[C@H]2CN(CCc3c([nH]c4ccccc34)[C@@](C(=O)OC)(c3cc4c(cc3OC)N(C=O)[C@H]3[C@@](O)(C(=O)OC)[C@H](OC(C)=O)[C@]5(CC)C=CCN6CC[C@]43[C@@H]65)C2)C1 [vincristine] + c1cc(-c2cnn3cc(-c4ccc(OCCN5CCCCC5)cc4)cnc23)ccn1 [Dorsomorphin] (first compound 0.0001 µM, partner dose 0.4 µM)	109	101	50.2	124	62.5	168	160	12.9	142	132	184	140	593	45.9	190	179	1210	134
Cc1cn(-c2cc(NC(=O)c3ccc(C)c(Nc4nccc(-c5cccnc5)n4)c3)cc(C(F)(F)F)c2)cn1 [nilotinib] + Cn1cc(/C=C2\C(=O)Nc3cccnc32)c2ccccc21 [GW441756] (first compound 0.2 µM, partner dose 0.4 µM)	64.1	51.8	179	138	50.8	294	81.1	74.8	107	93.5	26.8	35.8	138	19.7	97.9	145	129	89.7
Cc1cn(-c2cc(NC(=O)c3ccc(C)c(Nc4nccc(-c5cccnc5)n4)c3)cc(C(F)(F)F)c2)cn1 [nilotinib] + CC(C)CCN1c2nc(Nc3cc(F)c(O)c(F)c3)ncc2N(C)C(=O)C1C [BID1870] (first compound 0.2 µM, partner dose 0.2 µM)	42	126	99.6	96.8	45	43	71	124	43.1	349	33.7	161	191	200	196	76.9	153	185
O=C(Nc1cc(C(F)(F)F)cc(C(F)(F)F)c1)c1cc(Cl)ccc1O + c1cc(-c2cnn3cc(-c4ccc(OCCN5CCCCC5)cc4)cnc23)ccn1 [Dorsomorphin] (first compound 0.016 µM, partner dose 0.4 µM)	117	88	129	85.2	30.2	97.5	61.4	63.4	85.2	73.7	70.3	92.7	140	68.7	113	79.5	80.2	94.7
Cc1cc(Nc2cc(N3CCN(C)CC3)nc(Sc3ccc(NC(=O)C4CC4)cc3)n2)n[nH]1 [Tozasertib] + O=C(O)C(=O)Nc1sc2c(c1C(=O)O)CCNC2 [TCS401] (first compound 0.006 µM, partner dose 1.66667 µM)	79	137	502	82.8	91.4	56.2	88.4	86.2	125	87.7	45.6	81.6	161	132	67.6	144	109	182
Cc1ccc(Nc2nccc(N(C)c3ccc4c(C)n(C)nc4c3)n2)cc1S(N)(=O)=O [Pazopanib] + O=C1NC(=O)/C(=C/c2ccc(-c3ccc(F)cc3O)o2)S1 [AS252424] (first compound 0.4 µM, partner dose 1 µM)	171	39.2	54.6	49.5	119	186	95.2	158	82.5	72.7	142	248	114	92.1	78	173	202	121
Cc1cn(-c2cc(NC(=O)c3ccc(C)c(Nc4nccc(-c5cccnc5)n4)c3)cc(C(F)(F)F)c2)cn1 [nilotinib] + COc1ccc2c(c1)CCC1C2CCC2(C)C(NCCCCCCN3C(=O)C=CC3=O)CCC12 [U73122] (first compound 0.2 µM, partner dose 0.4 µM)	100	67.9	162	165	46.6	168	126	108	82.3	125	717	200	150	63.8	267	60.7	46.5	211
Cc1ccc(Nc2nccc(N(C)c3ccc4c(C)n(C)nc4c3)n2)cc1S(N)(=O)=O [Pazopanib] + Oc1cc(-c2nc(-c3ccccc3)[nH]c2-c2ccncc2)ccc1Cl [L779450] (first compound 0.4 µM, partner dose 0.2 µM)	105	87.9	161	187	57.1	189	71.5	96.4	193	76.4	74.9	133	76.1	96.1	529	86.9	143	185
CC[C@]1(O)C[C@H]2CN(CCc3c([nH]c4ccccc34)[C@@](C(=O)OC)(c3cc4c(cc3OC)N(C=O)[C@H]3[C@@](O)(C(=O)OC)[C@H](OC(C)=O)[C@]5(CC)C=CCN6CC[C@]43[C@@H]65)C2)C1 [vincristine] + O=C(O)C(=O)Nc1sc2c(c1C(=O)O)CCNC2 [TCS401] (first compound 0.0001 µM, partner dose 1.66667 µM)	78	135	81.1	177	158	69.7	45.8	90.6	372	75.1	41.1	73	122	197	145	78.7	405	51.9
Cc1cn(-c2cc(NC(=O)c3ccc(C)c(Nc4nccc(-c5cccnc5)n4)c3)cc(C(F)(F)F)c2)cn1 [nilotinib] + COc1cc(N2CCC(N3CCN(C)CC3)CC2)ccc1Nc1ncc(Cl)c(Nc2ccccc2S(=O)(=O)C(C)C)n1 [NVP-TAE684] (first compound 0.2 µM, partner dose 0.08 µM)	89	99.4	61.5	105	66	37.2	42.8	111	63.2	274	74.4	128	165	189	55.5	86.4	225	154
COc1cc([C@@H]2c3cc4c(cc3[C@@H](O[C@@H]3O[C@@H]5CO[C@@H](C)O[C@H]5[C@H](O)[C@H]3O)[C@H]3COC(=O)[C@H]23)OCO4)cc(OC)c1O [etoposide] + CCc1ccc(CCOc2ccc(CC3SC(=O)NC3=O)cc2)nc1 [pioglitazone] (first compound 0.02 µM, partner dose 2 µM)	154	68.1	48.5	230	182	128	64.2	233	57.4	99.2	207	123	139	108	106	100	135	163

Part of the list above, bar-delimited:
Compound | cleaved PARP positive nuclei fraction (COLO792) [%] | cleaved PARP positive nuclei fraction (COLO800) [%] | cleaved PARP positive nuclei fraction (COLO829) [%] | cleaved PARP positive nuclei fraction (G361) [%] | cleaved PARP positive nuclei fraction (IPC-298) [%] | cleaved PARP positive nuclei fraction (IST-MEL1) [%] | cleaved PARP positive nuclei fraction (LB2518-MEL) [%] | cleaved PARP positive nuclei fraction (LOXIMVI) [%] | cleaved PARP positive nuclei fraction (MZ2-MEL) [%] | cleaved PARP positive nuclei fraction (MeWo) [%] | cleaved PARP positive nuclei fraction (RPMI7951) [%] | cleaved PARP positive nuclei fraction (RVH-421) [%] | cleaved PARP positive nuclei fraction (SkMel28) [%] | cleaved PARP positive nuclei fraction (SkMel2) [%] | cleaved PARP positive nuclei fraction (SkMel30) [%] | cleaved PARP positive nuclei fraction (SkMel5) [%] | cleaved PARP positive nuclei fraction (UACC257) [%] | cleaved PARP positive nuclei fraction (UACC62) [%]
Cc1ccc(Nc2nccc(N(C)c3ccc4c(C)n(C)nc4c3)n2)cc1S(N)(=O)=O [Pazopanib] + Oc1cc(-c2nc(-c3ccccc3)[nH]c2-c2ccncc2)ccc1Cl [L779450] (first compound 0.4 µM, partner dose 0.2 µM) | 105 | 87.9 | 161 | 187 | 57.1 | 189 | 71.5 | 96.4 | 193 | 76.4 | 74.9 | 133 | 76.1 | 96.1 | 529 | 86.9 | 143 | 185
CC[C@]1(O)C[C@H]2CN(CCc3c([nH]c4ccccc34)[C@@](C(=O)OC)(c3cc4c(cc3OC)N(C=O)[C@H]3[C@@](O)(C(=O)OC)[C@H](OC(C)=O)[C@]5(CC)C=CCN6CC[C@]43[C@@H]65)C2)C1 [vincristine] + O=C(O)C(=O)Nc1sc2c(c1C(=O)O)CCNC2 [TCS401] (first compound 0.0001 µM, partner dose 1.66667 µM) | 78 | 135 | 81.1 | 177 | 158 | 69.7 | 45.8 | 90.6 | 372 | 75.1 | 41.1 | 73 | 122 | 197 | 145 | 78.7 | 405 | 51.9
